Measurements as given in paper PMC2852416, “Modular Insulators: Genome Wide Search for Composite CTCF/Thyroid Hormone Receptor Binding Sites”.
These are yes or no findings as the source states them, for the method shown. In cells and extracts the contact can be indirect. For some of these results: Binding can be weak; no strength is given. Where a sequence is shown, tags or fusion partners need not be part of it.

What was measured:
Experiment in all cases: pull-down; GST fusion protein on glutathione-sepharose beads incubated with [35S]methionine-labeled in vitro translated protein in 200 µl binding buffer, 2 h at 4°C; washed 3 times; SDS-PAGE and fluorography; only the target purified
[1] = target: GST fusion with the ligand binding domain (LBD) of RXR
[2] = target: GST fusion with the ligand binding domain (LBD) of TR (human)
[3] = target: GST fusion with the DNA binding domain (DBD) of TR (human)
[4] = target: GST fusion with the DNA binding domain (DBD) of RXR

B1: CTCF (labelled prey in the pull-downs with GST receptor domains) (protein, UniProt P49711 1-727)
chain: MEGDAVEAIVEESETFIKGKERKTYQRRREGGQEEDACHLPQNQTDGGEVVQDVNSSVQMVMMEQLDPTLLQMKTEVMEGTVAPEAEAAVDDTQIITLQVVNMEEQPINIGELQLVQVPVPVTVPVATTSVEELQGAYENEVSKEGLAESEPMICHTLPLPEGFQVVKVGANGEVETLEQGELPPQEDPSWQKDPDYQPPAKKTKKTKKSKLRYTEEGKDVDVSVYDFEEEQQEGLLSEVNAEKVVGNMKPPKPTKIKKKGVKKTFQCELCSYTCPRRSNLDRHMKSHTDERPHKCHLCGRAFRTVTLLRNHLNTHTGTRPHKCPDCDMAFVTSGELVRHRRYKHTHEKPFKCSMCDYASVEVSKLKRHIRSHTGERPFQCSLCSYASRDTYKLKRHMRTHSGEKPYECYICHARFTQSGTMKMHILQKHTENVAKFHCPHCDTVIARKSDLGVHLRKQHSYIEQGKKCRYCDAVFHERYALIQHQKSHKNEKRFKCDQCDYACRQERHMIMHKRTHTGEKPYACSHCDKTFRQKQLLDMHFKRYHDPNFVPAAFVCSKCGKTFTRRNTMARHADNCAGPDGVEGENGGETKKSKRGRKRKMRSKKEDSSDSENAEPDLDDNEDEEEPAVEIEPEPEPQPVTPAPPPAKKRRGRPPGRTNQPKQNQPTAIIQVEDQNTGAIENIIVEVKKEPDAEPAEGEEEEAQPAATDAPNGDLTPEMILSMMDR
modifications: [35S]methionine-labeled
B1 was tested, and the binding [1] was “no binding”, the binding [2] was “binds weakly” and the binding [3] was “binds”. For the same binder, the binding [4] was “binds”.
